Results deposited as PubChem BioAssay AID504804 (Drosophila RNAi Screening Center, 2011)

Screen: 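Fly genes whose loss lessens doxorubicin-driven cell death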 (primary screen)
System: Drosophila Kc cells
Knock-down reagent: long dsRNA against Drosophila genes, 0.5 µg dsRNA per well
Time to read-out: 96 h (48 h knock-down, then 48 h drug)
Challenge: doxorubicin 5 µg/ml for 48 h, added 48 h after dsRNA
Measured: 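Luminescent ATP counts per replicate, not normalised, reflecting viable cells after 48 h dsRNA knock-down followed by 48 h of 5 µg/ml doxorubicin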
Reading the numbers: raw ATP luminescence: higher = more viable cells, protection from doxorubicin
Call rule: 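z-score of 2 or more over plate mean in both duplicates, retained only when retests and separate dsRNAs confirm the protection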
The deposit covers about 19,000 reagents; shown is a random part of those that have a named target and a result. Over the whole deposit, 47 (0.25%) got an active call. 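Signals are raw, not normalised; exact z-scores behind calls not deposited; actives needed confirmation, so some wells reaching 2 SD are inactive.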 Unmarked entries are inactive. Names joined by + are all predicted targets of the reagent.

For E(spl)m5-HLH (GeneID 43158) [DRSC16695], what was measured?
raw ATP luminescence, replicate 1: 60020; raw ATP luminescence, replicate 2: 65860

Which result is listed for wkd (GeneID 41390) [DRSC15777]?
raw ATP luminescence, replicate 1: 61010; raw ATP luminescence, replicate 2: 46013

How did the screen score CG11226 (GeneID 40501) [DRSC11639]?
raw ATP luminescence, replicate 1: 68583; raw ATP luminescence, replicate 2: 57263

For az2 (GeneID 35682) [DRSC07580], what does the deposit list?
raw ATP luminescence, replicate 1: 57833; raw ATP luminescence, replicate 2: 69093

With caly (GeneID 36794) [DRSC07182], how do the results read?
raw ATP luminescence, replicate 1: 72307; raw ATP luminescence, replicate 2: 50620

Which result is listed for Sk2 (GeneID 326219) [DRSC08556]?
raw ATP luminescence, replicate 1: 44570; raw ATP luminescence, replicate 2: 40050

In a second layout: entries from further up
{"Gene":"caly (GeneID 36794)","DRSC id":"DRSC07182","raw ATP luminescence, replicate 1":72307,"raw ATP luminescence, replicate 2":50620}
{"Gene":"Sk2 (GeneID 326219)","DRSC id":"DRSC08556","raw ATP luminescence, replicate 1":44570,"raw ATP luminescence, replicate 2":40050}

Next results follow:
For gdl-ORF39 + gdl [DRSC11350], what was measured?
raw ATP luminescence, replicate 1: 40960; raw ATP luminescence, replicate 2: 37740

Which result is listed for Snx6 (GeneID 34126) [DRSC03081]?
raw ATP luminescence, replicate 1: 93127; raw ATP luminescence, replicate 2: 57850

For MP1 (GeneID 40541) [DRSC12124], how do the results read?
raw ATP luminescence, replicate 1: 24693; raw ATP luminescence, replicate 2: 27567

With CG1416 (GeneID 35426) [DRSC03706], what does the deposit list?
raw ATP luminescence, replicate 1: 61243; raw ATP luminescence, replicate 2: 72177

For CG15210 (GeneID 50323) [DRSC19656], how do the results read?
raw ATP luminescence, replicate 1: 3.67e5; raw ATP luminescence, replicate 2: 3.96e5

With CG31493 (GeneID 318765) [DRSC12583], what was measured?
raw ATP luminescence, replicate 1: 54517; raw ATP luminescence, replicate 2: 21357

What is on record for CG18265 (GeneID 39947) [DRSC10310]?
raw ATP luminescence, replicate 1: 65640; raw ATP luminescence, replicate 2: 55307

What did the screen give for CG3337 (GeneID 42519) [DRSC15478]?
raw ATP luminescence, replicate 1: 2.22e5; raw ATP luminescence, replicate 2: 2.18e5

For Tpc1 (GeneID 41316) [DRSC15614], what does the deposit list?
raw ATP luminescence, replicate 1: 59493; raw ATP luminescence, replicate 2: 50047

What did the screen give for Tpc1 (GeneID 41316) [DRSC16074]?
raw ATP luminescence, replicate 1: 49243; raw ATP luminescence, replicate 2: 22930

Which result is listed for CG5946 (GeneID 39336) [DRSC10560]?
raw ATP luminescence, replicate 1: 79987; raw ATP luminescence, replicate 2: 70660

With NP15.6 (GeneID 42282) [DRSC16756], what was measured?
raw ATP luminescence, replicate 1: 39800; raw ATP luminescence, replicate 2: 38740

For CG34296 (GeneID 5740662) [DRSC13961], what was measured?
raw ATP luminescence, replicate 1: 2.25e5; raw ATP luminescence, replicate 2: 2.50e5
